Laboratory results taken from paper PMC10128056.
No constants are given. Whether binding was seen depends on the method and setting. Some entries that bind do so weakly or less than the wild type. One block for each binder: values may come before it.

Legend:
Assay in all cases: two-hybrid; BACTH bacterial two-hybrid in BTH101 E. coli; each protein as N- and C-terminal fusion to T18 and T25; blue-white assay on X-Gal plates (24 h at 30°C, four replicates) and quantitative β-galactosidase assays (triplicate, normalised to the Zip positive control)
[1] = molecular target: T1, B. subtilis GlmS (B. subtilis) (UniProt P0CI73)
T1 sequence: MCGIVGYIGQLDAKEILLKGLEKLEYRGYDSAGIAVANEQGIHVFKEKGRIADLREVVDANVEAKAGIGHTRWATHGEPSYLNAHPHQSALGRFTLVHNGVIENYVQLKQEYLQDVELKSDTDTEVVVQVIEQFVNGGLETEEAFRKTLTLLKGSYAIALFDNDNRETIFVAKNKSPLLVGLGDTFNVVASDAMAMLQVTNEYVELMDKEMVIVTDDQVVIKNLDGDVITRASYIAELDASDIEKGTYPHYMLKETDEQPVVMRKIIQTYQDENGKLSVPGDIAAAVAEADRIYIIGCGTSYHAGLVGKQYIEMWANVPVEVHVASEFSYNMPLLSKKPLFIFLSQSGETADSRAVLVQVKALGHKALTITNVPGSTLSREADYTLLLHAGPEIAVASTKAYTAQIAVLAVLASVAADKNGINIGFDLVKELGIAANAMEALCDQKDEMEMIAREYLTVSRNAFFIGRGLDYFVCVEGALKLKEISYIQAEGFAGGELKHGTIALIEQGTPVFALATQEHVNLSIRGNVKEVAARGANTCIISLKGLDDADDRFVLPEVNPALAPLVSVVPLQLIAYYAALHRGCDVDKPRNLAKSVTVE

[2] = molecular target: B. subtilis GlmR (B. subtilis) (UniProt O06974)
[3] = molecular target: L. monocytogenes GlmS (L. monocytogenes) (UniProt Q8Y915)

- binding [1]: binds
B1: B. subtilis GlmS (enzyme, UniProt P0CI73 1-600)
chain: T1 sequence

- binding [2]: binds
- binding [1]: binds
B2: B. subtilis GlmR (protein, UniProt O06974 1-317)
chain: MGQKPKIAIFGGGTGLSVLLRGLKHKPVDITAIVTVADDGGSSGRLRNELKIPPPGDIRNVLAALSDVEPLVEDLFQHRFNKGNDLTGHSLGNLILAAMTNITGDFFHAVTEMSKVLNVRGKVLPAANASVVLHAEMEDGRVVSGESTIPEYGQRIKRVFLTPEQIDPLPETIDVIREADLIIIGPGSLYTSILPNLLVPKIGEEVIKAPAKKVYICNVMTQPGETLHYTAADHVKALNQHMGCGFIDTILVNSEDIPDEIKRKYEMESARPVDFDIEELKAMGLEVIRDQIVTYKNDVIRHDTHKVASLLVDLLKE

- binding [3]: binds
B3: L. monocytogenes GlmS (enzyme, UniProt Q8Y915 1-601)
chain: MCGIVGYIGTNNAKGILLEGLEKLEYRGYDSAGIALQNKELVTVVKEKGRIADLASLVPSDAFGTTGIGHTRWATHGKPNHENAHPHQSKSGRFTIVHNGVIENYTLLKEEYLKNHSFVSDTDTEVIVQLIELFAAELSTKEAFKKALSLLHGSYAICLIDQTNTETLYAAKNKSPLLIGKGENFNVIASDAMAVLKETDEFVEIMDKEIVIVTKDGFTLETLEGEEITRASYKAELDASDIEKGTYPHYMLKEIDEQPAVTRKIIQAYQDEAGEINVDKTIIDEILSSDRIHIVACGTSYHAGLVGKNLIEKMAKIPVEVHVSSEFAYNLPLMSKKPLFIFITQSGETADSRQCLVKVKELGYRTLTLTNVPGSTLDREADHSMYLYAGPEIAVASTKAYTAQISVLAVLAVSLGREIGDEEALNINLAAELGIVATAMEAMVSSKEVIEHIAGEYLATSRNAFFLGRNIDYFVAMEAALKLKEISYIQAEGFASGELKHGTIALIEDGTPVLALITQESINWNIRGNVNEVLARGAKTCIFAMENVAQPGDRFVIPQVHPLLTPLASVIPCQLLAYYAALHRDCDVDKPRNLAKSVTVE
